This is an account of results in patent US10655183B2, “Carcinoma diagnosis and treatment based on ODC1 genotype” (THE ARIZONA BOARD OF REGENTS ON BEHALF OF THE UNIVERSITY OF …, priority 2014, dated 2020).

Test [1] concerns ODC1 +263 G oligonucleotide G-quadruplex. In words: CD thermal stability (TM) of G-quadruplex with NSC176327. Format: binding, human. Here is the method: (§1) Then the samples were heated to 95° C. and slowly cooled to room temperature. For double-stranded conditions, the G-rich and C-rich strands of DNA were annealed by heating the strands to 95° C., rapidly cooling to the strands TM, holding at that temperature for 5 min, and cooling to room temperature at 1° C./min in a Qiagen PCR machine (RotorGene Q Series software). The sample was split to 0 or 100 mM KCl in the presence or absence of 530 ng recombinant human Sp1 protein (Promega, part number E639A) and heated again to the dsDNA annealing temperature, and then allowed to slowly cool again. CD spectra data were recorded on a Jasco-810 spectropolarmeter using a quartz cell with a 1-mm optical path length, with a response time of 1 s. Each sample was processed with three averaged scans within the range of 200 to 350 nm and results were baseline-corrected for signal contributions due to buffer and salts. Thermal melts (TMs) were determined on the Jasco CD instrument, at 263 nm from 4° C. to 90° C. (heating rate of 2° C./min).
(§2) Each of these experiments was done in the presence of 10 mM KCl to allow for equilibrating G-quadruplex formation. […] Although molar ellipticity of both the +263 T and G allele G-quadruplex peaks decreased by ˜⅓ in the presence of 10 mM KCl and the compound, thermal stabilities increased to 75 and 68° C., which translate to nominal ΔTM increases over the DMSO-matched experiment at +14 and +11° C., respectively (Table 3).

Test [2] has as its system ODC1 +263 T oligonucleotide G-quadruplex. Described as above. Format: binding, human. Here is the method:
as §1, §2

Setting [3] is: 5 uM NSC176327, 10 mM KCl, oligonucleotide 5 μm, parallel G-quadruplex peak 262-264 nm.

Values joined by “and” are separate entries in the source; they are usually repeats but may differ in a detail not shown here. Identical values can stand only once.

As to `COc1ccc2c(c1)c1c(C)c3cnccc3c(C)c1n2CCCN` [NSC176327], the “decrease of molar ellipticity of G-quadruplex peaks” value was “⅓” in test [1] (5 μM NSC176327, 10 mM KCl) and “⅓” in test [2] (5 μM NSC176327, 10 mM KCl). Moreover, the TM in test [1] (setting [3]) is 68 °C and 68.45 °C; in test [2] (setting [3]), 75 °C and 74.69 °C.
